Measured values from patent US20260209320A1.
No constants are given. Whether binding was seen depends on the method and setting. Some binding calls cover weakened binding; strength is not graded here.

Assays:
[1] = molecular target: Mutant Human HTT Exon 1 48Q (GST) (human); assay: BLI (Octet), Mutant HTT exon1 48Q on GST biosensor
[2] = molecular target: biotinylated … peptide; assay: BLI (Octet), biotinylated peptide on streptavidin biosensor
[3] = molecular target: Mutant Human HTT Exon 1 48Q (GST) (human); assay: HTT sandwich ELISA
[4] = molecular target: Murine HTT antigen (murine); assay: direct ELISA on coated murine HTT antigen

Measured: binding

B1: ATL_0006375 (antibody, V domains shown)
VH: EVQLVESGGGLVKPGGSLRLSCAASGFTFNKAWMSWVRQAPGKGLEWVGRIKSGIDAGTTDYAAPVKGRFTISRDDSKNTLYLQMNSLKTEDTAVYYCVPPPYYYYYGLDVWGQGTTVTVSS
VL: QSALTQPRSVSGSPGQSVTISCTGTSSDVGSYNLVSWYQQHPGKAPKLMIYEVNKRPSGVPDRFSGSKSGATASLTISGLQAEDEADYYCVSYGGTENVFGTGTKVTVL
binds: [1] | [2] | [3]

B2: ATL_0006378 (antibody, V domains shown)
VH: EVQLVESGGGLVKPGGSLRLSCAASGFTFNKAWMSWVRQAPGKGLEWVGRIKSGIDAGTTDYAAPVKGRFTISRDDSKNTLYLQMNSLKTEDTAVYYCVPSPYYYYYGLDVWGQGTTVTVSS
VL: QSALTQPRSVSGSPGQSVTISCTGTSSDVGSYNLVSWYQQHPGKAPKLMIYEVNKRPSGVPDRFSGSKSGATASLTISGLQAEDEADYYCVSYGGTENVFGTGTKVTVL
binds: [1] | [2] | [3]

B3: ATL_0006376 (antibody, V domains shown)
VH: EVQLVESGGGLVKPGGSLRLSCAASGFTFNKAWMSWVRQAPGKGLEWVGRIKSGIDAGTTDYAAPVKGRFTISRDDSKNTLYLQMNSLKTEDTAVYYCVPPPFYYYYGLDVWGQGTTVTVSS
VL: QSALTQPRSVSGSPGQSVTISCTGTSSDVGSYNLVSWYQQHPGKAPKLMIYEVNKRPSGVPDRFSGSKSGATASLTISGLQAEDEADYYCVSYGGTENVFGTGTKVTVL
binds: all assays above

B4: ATL_0006377 (antibody, V domains shown)
VH: EVQLVESGGGLVKPGGSLRLSCAASGFTFNKAWMSWVRQAPGKGLEWVGRIKSGIDAGTTDYAAPVKGRFTISRDDSKNTLYLQMNSLKTEDTAVYYCVPSPYYYYYGLDVWGQGTTVTVSS
VL: QSALTQPRSVSGSPGQSVTISCTGTSSDVGSYNLVSWYQQHPGKAPKLMIYEVNKRPSGVPDRFSGSKSGATASLTISGLQAEDEADYYCVSYAGTANVFGTGTKVTVL
binds: all assays above
